Assay [1] has as its target TGF-β1-LAP (amino acid residues at position-30 to position-390) with mutation R278A (human) (UniProt P01137). Put plainly: hybridoma screening ELISA. (An ELISA detects its analyte on a solid surface through an enzyme-linked reagent.)
For assay [2], the target named is TGF-β1-LAP (C33S/N176Q) (amino acid residues at position-30 to position-390) (human) (UniProt P01137). Briefly: X-ray crystal structure (Reference Example).
For assay [3] the target is unchanged. Put plainly: X-ray crystal structure, 2.93 Å.
The target is the same in assay [4]. Briefly: complex formation, gel filtration. In general terms: Size exclusion chromatography separates by hydrodynamic size, large species first.

The chains behind the UniProt entries cited, without tags or fusion partners. Where a name states a change or a piece, a line headed by the entry shows the natural chain unless it says otherwise.
UniProt P01137: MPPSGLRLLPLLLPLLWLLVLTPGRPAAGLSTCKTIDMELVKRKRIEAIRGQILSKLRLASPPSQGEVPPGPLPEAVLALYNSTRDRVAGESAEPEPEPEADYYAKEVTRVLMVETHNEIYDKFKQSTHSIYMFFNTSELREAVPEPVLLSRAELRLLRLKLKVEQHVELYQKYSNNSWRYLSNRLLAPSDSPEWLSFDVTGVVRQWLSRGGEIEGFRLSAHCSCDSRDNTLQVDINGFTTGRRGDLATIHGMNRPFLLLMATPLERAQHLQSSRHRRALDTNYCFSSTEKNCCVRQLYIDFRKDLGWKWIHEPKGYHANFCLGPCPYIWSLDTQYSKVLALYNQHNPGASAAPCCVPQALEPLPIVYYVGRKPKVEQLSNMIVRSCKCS

No constants are given. Whether binding was seen depends on the method and setting. Some binding calls cover weakened binding; strength is not graded here.

B1: anti-LAP-D antibody (A10) (antibody, mouse IgG1, kappa, V domains shown)
VH: QVQLQQPGAELVRPGASVKLSCKTSGYSFTRFWMNWVRQRPGQGLEWIGMIHSSDSITRLNQKFKDKATLTLDYSSSTAYMQLSSPTSEDSAVYYCARGYDEYSAMDYWGQGTSVPVSS
VL: DIQMTQSPSSLSASLGERVSLTCRASHEISGYLGWLQRQPDGTIKRLIYAASTLDSGVPKRFSGSRSGSDYSLTISSLESEDFADYYCLQYASYPFTFGSGTKLEVKR
notes: Biotin-labelled when used as ELISA detection antibody; immobilised on a CM5 chip in SPR; also called isolated monoclonal antibody of the present embodiment
As to B1, the binding entry in assay [1] is on record as “binds”.

B2: A2D109 antibody Fv fragment (protein)
VH: EVQLQQSGAELVRPGASVKLSCKASGYTFTSYWMNWVKQRPGQGLEWIGMIDPSDSETHYNQMFKDKATLTVDKSSSTAYMQLSSLTSEDSAVYYCVNWPYALDYWGQGTSVTVSS
VL: QIVLTQSPAIMSASPGEKVTMTCSASSSVSYMHWFQQKPGTSPKLWIYSTSNLASGVPARFSGSGSGTSYSLTISRMEAEDAATYYCQQRSSYPFTFGSGTKLEIKRA
For B2, the binding result in assay [2], in assay [3] and in assay [4] was “binds” each time.

The values above are taken from patent US20210017265A1 (RIKEN, published 2021).
